# Measured values taken from paper PMC12557383 (Journal of Medicinal Chemistry, 2025).
# HELM strings list residues between dots; [ac] is acetyl, [am] amide, other brackets name non-standard units.
# Test: general procedure: Fmoc solid-phase peptide synthesis; Fmoc-aminoacyl-CLEAR amide resin (0.36 mmol/g); Fmoc-Phe-Wang resin (0.30 mmol/g) for MazE_48–53; DIC/HOBT or TBTU
# Conditions: whole synthesis, RP-HPLC, absorbance at 210 nm
substance,measurement,value
PEPTIDE1{[ac].S.H.L.F.W.A.Q.F.D.E.Y.F.[am]}$$$$V2.0,final HPLC purity,about 98%
